Taken from: PubChem BioAssay AID743454 (Peter MacCallum Cancer Centre, 2014)

- Assay: 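Knock-downs lowering viability or raising caspase 3/7 activity in vorinostat-treated resistant cells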 (primary screen)
- Cell system: human HCT116-VR colon cancer cells, selected for vorinostat resistance
- Reagents: siRNA pool against human genes, 40 nM siRNA pool
- Timing: vorinostat for 24 h, read-out about 72 h after transfection
- Challenge: vorinostat at 2.5 µM final
- Detection: 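Cell viability by CellTiter-Fluor and caspase 3/7 activity by luminescence, each scaled to mock wells per plate, duplicates averaged, then robust z-scored over all plates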
- Scale: viability robust z-score: higher = more viable cells than screen typical; caspase robust z-score: higher = more caspase 3/7 activity than screen typical
- Active means: 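Hits are knock-downs in viability class RV1/RV2 or caspase class CA1/CA2, excluding ones that killed cells in the no-drug cell-count arm; hits then retested with single siRNAs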
Shown is one part, drawn at random, of about 18,000 deposited reagents. In the full data, 450 (2.5%) were called active. 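Single biological run; no consistent viability z cut-off exists, so the class columns, not z-scores, define the calls.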

no.	gene	viability hit class	caspase hit class	viability robust z-score	caspase robust z-score	call
1	TMCO1	no change	no change	-0.12	0.2	inactive
2	MLST8	no change	no change	-0.37	-1.54	inactive
3	UBL4A	no change	no change	1.16	0.03	inactive
4	TMEM132E-DT	no change	no change	-0.24	2.53	inactive
5	ISX	no change	no change	0.15	-0.5	inactive
6	HCAR1	no change	no change	-0.14	1.12	inactive
7	LCN6	no change	no change	-0.82	1.27	inactive
8	OR56B1	no change	no change	0.89	1.05	inactive
9	CHD4	no change	CA2 (caspase activation)	-4.95	6.46	active
10	IFTAP	no change	no change	-0.48	1.9	inactive
11	ZNF514	no change	no change	0.54	1.16	inactive
12	CACTIN	no change	no change	-1.26	-1.01	inactive
13	SLC38A2	no change	no change	0.46	0.06	inactive
14	CDNF	no change	no change	0.99	0.42	inactive
15	OR10H2	no change	no change	-0.3	-0.1	inactive
16	KDM1B	no change	no change	1.02	0.33	inactive
17	HEXA	no change	no change	-1.72	0.35	inactive
18	PRSS42P	no change	no change	0.45	-0.52	inactive
19	GATA5	no change	no change	-0.1	-0.69	inactive
20	LOC652759 (retired record)	no change	no change	-0.71	1.15	inactive
21	ZNF441	no change	CA1 (caspase activation)	0.97	6.79	active
22	COLGALT2	no change	no change	1.59	0.68	inactive
23	RNASEH2A	no change	no change	0.69	1.26	inactive

Look-ups from the list:
MLST8, call = inactive
HCAR1, viability hit class → no change
Value of LOC652759 (retired record) in “viability hit class”: no change
